Results reported in the supplement of paper PMC6411743.
± gives the standard deviation of the averaged measurements. This is one part of the list.

The chains behind the UniProt entries cited, without tags or fusion partners. Where a name states a change or a piece, a line headed by the entry shows the natural chain unless it says otherwise.
UniProt Q8WUX2: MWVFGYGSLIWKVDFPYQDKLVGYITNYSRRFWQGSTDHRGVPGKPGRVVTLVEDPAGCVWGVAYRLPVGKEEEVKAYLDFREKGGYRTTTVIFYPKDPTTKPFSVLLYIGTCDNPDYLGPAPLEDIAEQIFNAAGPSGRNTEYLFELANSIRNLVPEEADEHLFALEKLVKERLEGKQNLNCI
UniProt Q8WVE0: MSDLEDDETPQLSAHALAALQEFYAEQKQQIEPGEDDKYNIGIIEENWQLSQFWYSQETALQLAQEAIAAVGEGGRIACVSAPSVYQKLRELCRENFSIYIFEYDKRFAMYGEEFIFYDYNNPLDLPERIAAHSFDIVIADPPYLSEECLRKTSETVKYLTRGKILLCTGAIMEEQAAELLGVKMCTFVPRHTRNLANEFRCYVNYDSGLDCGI
UniProt Q92878: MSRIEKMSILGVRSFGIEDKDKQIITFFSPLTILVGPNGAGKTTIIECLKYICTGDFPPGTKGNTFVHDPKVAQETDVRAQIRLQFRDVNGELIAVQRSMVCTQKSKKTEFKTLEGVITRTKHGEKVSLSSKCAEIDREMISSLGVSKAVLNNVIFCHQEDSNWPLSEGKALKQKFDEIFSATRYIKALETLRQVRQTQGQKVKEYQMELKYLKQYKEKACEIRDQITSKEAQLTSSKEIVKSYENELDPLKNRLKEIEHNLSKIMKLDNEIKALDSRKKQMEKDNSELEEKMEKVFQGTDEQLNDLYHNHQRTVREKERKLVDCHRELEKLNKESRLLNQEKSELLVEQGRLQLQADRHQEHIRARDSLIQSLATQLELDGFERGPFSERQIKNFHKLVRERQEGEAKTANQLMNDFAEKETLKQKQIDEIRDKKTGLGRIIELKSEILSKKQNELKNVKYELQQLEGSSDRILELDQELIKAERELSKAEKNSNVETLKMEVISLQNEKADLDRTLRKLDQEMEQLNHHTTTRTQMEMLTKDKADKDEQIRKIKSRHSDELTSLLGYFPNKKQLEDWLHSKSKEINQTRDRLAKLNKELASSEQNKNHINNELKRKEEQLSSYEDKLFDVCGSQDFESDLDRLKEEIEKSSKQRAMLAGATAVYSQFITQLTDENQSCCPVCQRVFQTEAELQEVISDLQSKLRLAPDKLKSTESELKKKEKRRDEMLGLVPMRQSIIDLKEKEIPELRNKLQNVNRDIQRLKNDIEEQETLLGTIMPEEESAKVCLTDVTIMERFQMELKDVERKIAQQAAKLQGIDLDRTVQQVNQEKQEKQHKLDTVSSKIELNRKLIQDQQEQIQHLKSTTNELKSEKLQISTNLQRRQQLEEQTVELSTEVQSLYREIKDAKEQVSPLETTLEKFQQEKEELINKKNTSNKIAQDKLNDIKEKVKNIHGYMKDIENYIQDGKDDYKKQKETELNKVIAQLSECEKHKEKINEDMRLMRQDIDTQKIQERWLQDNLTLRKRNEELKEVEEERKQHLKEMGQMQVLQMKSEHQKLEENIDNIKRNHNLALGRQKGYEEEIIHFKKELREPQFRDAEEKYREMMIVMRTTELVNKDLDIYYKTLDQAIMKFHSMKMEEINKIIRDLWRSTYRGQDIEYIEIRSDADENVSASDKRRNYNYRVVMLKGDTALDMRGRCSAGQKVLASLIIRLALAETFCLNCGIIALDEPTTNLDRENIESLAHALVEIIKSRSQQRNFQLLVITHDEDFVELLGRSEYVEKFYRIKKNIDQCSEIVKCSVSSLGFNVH
UniProt Q96EB1: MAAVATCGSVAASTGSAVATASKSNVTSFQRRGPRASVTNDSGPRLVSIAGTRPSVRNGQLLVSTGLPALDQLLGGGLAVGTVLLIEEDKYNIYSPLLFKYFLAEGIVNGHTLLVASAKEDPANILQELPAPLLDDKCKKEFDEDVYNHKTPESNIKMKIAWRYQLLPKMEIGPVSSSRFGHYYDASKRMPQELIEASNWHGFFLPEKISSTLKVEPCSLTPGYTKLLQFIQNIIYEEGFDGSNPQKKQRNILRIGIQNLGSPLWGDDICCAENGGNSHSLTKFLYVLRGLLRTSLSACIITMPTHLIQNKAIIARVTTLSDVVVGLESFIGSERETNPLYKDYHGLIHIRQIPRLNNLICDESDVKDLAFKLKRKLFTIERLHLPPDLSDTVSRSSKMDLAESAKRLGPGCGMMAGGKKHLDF
UniProt Q96F86: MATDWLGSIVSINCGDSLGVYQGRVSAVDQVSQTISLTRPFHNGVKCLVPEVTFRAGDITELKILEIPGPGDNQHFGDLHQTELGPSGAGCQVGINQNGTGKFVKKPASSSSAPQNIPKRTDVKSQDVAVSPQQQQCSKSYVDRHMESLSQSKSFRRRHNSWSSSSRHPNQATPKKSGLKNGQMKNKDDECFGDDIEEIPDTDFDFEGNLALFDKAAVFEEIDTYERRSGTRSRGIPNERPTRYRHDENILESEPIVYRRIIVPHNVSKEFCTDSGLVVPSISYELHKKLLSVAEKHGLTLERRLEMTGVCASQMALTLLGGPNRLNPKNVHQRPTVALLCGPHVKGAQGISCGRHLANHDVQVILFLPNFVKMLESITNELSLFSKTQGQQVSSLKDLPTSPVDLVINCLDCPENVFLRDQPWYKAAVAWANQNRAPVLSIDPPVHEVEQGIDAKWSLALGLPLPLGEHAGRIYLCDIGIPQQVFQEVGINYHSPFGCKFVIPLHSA
UniProt Q96AJ9: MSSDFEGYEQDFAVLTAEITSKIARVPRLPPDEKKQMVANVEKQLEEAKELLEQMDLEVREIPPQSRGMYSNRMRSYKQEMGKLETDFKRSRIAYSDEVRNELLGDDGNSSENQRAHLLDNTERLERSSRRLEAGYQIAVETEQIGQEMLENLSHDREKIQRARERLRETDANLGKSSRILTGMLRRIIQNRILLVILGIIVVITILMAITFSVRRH
UniProt Q96CS3: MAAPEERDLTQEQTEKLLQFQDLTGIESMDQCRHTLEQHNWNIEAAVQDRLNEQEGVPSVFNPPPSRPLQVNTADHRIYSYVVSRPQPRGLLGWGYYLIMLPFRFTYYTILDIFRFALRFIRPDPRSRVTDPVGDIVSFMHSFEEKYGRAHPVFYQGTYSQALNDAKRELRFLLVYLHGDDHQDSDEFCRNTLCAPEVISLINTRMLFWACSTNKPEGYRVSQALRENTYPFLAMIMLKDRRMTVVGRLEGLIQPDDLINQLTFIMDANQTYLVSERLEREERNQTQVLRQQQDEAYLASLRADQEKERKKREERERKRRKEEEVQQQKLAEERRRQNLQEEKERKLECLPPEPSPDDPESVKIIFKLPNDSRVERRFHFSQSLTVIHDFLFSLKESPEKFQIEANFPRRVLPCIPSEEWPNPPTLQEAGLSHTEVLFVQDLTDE
UniProt Q96B01: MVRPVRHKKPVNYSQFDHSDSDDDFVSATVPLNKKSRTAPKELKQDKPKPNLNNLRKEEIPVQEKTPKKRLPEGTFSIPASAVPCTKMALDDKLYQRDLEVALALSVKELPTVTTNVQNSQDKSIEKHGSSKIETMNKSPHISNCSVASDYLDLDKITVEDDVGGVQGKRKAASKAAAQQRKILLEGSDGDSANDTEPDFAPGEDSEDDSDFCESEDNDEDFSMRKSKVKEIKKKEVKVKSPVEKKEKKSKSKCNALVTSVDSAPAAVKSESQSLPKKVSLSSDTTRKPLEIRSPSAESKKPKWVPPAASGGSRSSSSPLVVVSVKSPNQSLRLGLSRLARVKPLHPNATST
UniProt Q96EK5: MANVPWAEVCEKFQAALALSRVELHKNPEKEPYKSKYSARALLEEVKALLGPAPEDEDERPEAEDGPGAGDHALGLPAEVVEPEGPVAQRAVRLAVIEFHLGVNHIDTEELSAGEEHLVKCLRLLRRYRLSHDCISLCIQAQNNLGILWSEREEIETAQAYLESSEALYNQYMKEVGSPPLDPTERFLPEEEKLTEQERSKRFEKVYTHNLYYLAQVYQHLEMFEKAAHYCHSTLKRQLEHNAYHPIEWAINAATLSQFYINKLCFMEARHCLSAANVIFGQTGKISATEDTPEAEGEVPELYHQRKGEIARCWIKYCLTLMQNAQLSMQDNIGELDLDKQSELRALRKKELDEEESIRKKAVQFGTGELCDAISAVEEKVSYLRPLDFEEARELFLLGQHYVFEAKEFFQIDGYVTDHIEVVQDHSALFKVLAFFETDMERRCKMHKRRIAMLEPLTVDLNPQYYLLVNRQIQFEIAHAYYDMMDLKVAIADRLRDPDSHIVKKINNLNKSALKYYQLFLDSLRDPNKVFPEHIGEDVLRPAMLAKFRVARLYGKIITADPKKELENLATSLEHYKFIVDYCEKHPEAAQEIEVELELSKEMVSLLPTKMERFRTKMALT
UniProt Q969P0: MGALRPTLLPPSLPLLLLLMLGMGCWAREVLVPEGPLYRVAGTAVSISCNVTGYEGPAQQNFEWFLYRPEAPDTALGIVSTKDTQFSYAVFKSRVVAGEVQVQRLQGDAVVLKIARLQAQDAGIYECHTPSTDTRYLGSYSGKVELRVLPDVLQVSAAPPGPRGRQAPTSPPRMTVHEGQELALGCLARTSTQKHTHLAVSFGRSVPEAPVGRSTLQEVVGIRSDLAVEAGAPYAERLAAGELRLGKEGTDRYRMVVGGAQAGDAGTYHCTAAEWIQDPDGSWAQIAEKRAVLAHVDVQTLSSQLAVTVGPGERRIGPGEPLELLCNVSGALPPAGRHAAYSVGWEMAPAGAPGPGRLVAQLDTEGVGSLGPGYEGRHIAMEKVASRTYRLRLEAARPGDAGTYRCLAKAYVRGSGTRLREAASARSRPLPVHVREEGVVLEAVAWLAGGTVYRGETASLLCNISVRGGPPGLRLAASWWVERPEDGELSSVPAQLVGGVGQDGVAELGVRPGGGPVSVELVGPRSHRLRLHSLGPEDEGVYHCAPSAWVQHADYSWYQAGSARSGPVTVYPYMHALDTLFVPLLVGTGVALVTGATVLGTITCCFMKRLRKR
UniProt Q969E8: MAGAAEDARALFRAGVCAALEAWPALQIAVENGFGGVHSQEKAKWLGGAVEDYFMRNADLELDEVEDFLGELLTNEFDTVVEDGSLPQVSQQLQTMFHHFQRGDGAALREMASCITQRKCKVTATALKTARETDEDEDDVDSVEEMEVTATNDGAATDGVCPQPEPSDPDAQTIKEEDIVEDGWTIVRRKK
UniProt Q96B26, whole entry: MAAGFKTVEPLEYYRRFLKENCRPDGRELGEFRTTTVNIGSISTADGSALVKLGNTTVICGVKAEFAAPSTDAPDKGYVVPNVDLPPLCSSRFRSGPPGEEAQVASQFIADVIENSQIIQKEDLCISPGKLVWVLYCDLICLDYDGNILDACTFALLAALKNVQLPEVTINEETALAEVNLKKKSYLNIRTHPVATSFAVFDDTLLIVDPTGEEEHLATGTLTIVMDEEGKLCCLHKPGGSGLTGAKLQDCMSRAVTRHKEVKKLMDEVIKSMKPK
UniProt Q8WZA0: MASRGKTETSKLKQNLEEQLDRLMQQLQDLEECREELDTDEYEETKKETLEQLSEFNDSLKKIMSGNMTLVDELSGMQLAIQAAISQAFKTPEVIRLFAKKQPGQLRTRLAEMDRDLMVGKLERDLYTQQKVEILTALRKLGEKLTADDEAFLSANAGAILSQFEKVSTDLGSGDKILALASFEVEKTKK
UniProt Q8WXD5: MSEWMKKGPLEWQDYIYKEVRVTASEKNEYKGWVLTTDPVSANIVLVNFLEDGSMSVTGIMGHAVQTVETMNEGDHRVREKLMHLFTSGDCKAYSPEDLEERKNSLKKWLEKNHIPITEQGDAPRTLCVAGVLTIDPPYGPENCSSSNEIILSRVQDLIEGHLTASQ
UniProt Q96EU6: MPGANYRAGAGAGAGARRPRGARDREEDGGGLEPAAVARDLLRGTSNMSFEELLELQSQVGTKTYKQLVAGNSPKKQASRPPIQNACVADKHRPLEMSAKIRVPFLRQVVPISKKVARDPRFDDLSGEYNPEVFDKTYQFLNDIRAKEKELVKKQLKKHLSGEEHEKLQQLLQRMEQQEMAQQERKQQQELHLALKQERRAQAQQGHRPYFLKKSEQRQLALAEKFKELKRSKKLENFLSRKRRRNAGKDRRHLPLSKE
UniProt Q96AB6: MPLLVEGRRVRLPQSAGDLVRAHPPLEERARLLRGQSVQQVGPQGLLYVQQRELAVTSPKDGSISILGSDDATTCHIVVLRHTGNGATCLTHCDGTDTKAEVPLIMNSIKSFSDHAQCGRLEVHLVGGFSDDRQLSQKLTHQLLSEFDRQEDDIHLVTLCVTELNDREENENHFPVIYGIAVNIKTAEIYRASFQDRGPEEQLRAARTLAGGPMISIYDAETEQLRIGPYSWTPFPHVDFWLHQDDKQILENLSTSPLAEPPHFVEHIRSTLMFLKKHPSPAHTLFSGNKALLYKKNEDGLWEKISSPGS
UniProt Q8WUY8: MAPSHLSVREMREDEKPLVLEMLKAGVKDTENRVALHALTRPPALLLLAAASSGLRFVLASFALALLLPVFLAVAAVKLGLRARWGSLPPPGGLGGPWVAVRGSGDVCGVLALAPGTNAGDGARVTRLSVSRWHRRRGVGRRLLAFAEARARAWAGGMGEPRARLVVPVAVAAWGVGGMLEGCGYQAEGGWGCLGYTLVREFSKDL

Compound: Nc1nc2c(ncn2[C@@H]2O[C@H](COP(=O)(O)OP(=O)(O)OP(=O)(O)O)[C@@H](O)[C@H]2O)c(=O)[nH]1 [guanosine triphosphate]
Test: NP40-soluble protein abundance relative to vehicle (solubility fold change) (ratio); higher = more soluble protein in presence of GTP
Outline: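 Across three independent experiments, values are fold changes against the detergent-processed vehicle for each replicate, based on vsn-normalised intensities. The samples were Jurkat crude lysate treated with eight concentrations (0.1 to 10 mM) for 10 min at room temperature and then 3 min at 37 °C. Lysate was solubilised with 0.8% NP40 and benzonase, ultracentrifuged, and the supernatant analysed by TMT-labelled LC-MS/MS.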

Target	NP40-soluble protein abundance (concentration: 0.1mM)	NP40-soluble protein abundance (concentration: 0.5mM)	NP40-soluble protein abundance (concentration: 1mM)	NP40-soluble protein abundance (concentration: 2mM)	NP40-soluble protein abundance (concentration: 4mM)	NP40-soluble protein abundance (concentration: 6mM)	NP40-soluble protein abundance (concentration: 8mM)	NP40-soluble protein abundance (concentration: 10mM)
CHAC2 (UniProt Q8WUX2)	0.895 ± 0.065	0.909 ± 0.043	0.855 ± 0.018	0.874 ± 0.0097	0.831 ± 0.041	0.819 ± 0.029	0.797 ± 0.072	0.808 ± 0.045
UniProt Q8WVE0	0.96 ± 0.05	1.07 ± 0.034	0.874 ± 0.048	0.924 ± 0.1	0.939 ± 0.042	0.882 ± 0.034	0.866 ± 0.088	0.922 ± 0.07
UniProt Q92878 and related entries	1.05 ± 0.023	1.07 ± 0.064	1.05 ± 0.043	1.03 ± 0.059	1.03 ± 0.047	1.04 ± 0.052	1.06 ± 0.1	1.01 ± 0.072
ELP4 (UniProt Q96EB1)	1.11 ± 0.035	1.07 ± 0.025	1.06 ± 0.023	1.1 ± 0.072	1.08 ± 0.077	1.08 ± 0.075	1.08 ± 0.089	1.05 ± 0.059
EDC3 (UniProt Q96F86)	1.01 ± 0.021	1.05 ± 0.022	1.04 ± 0.026	1.03 ± 0.017	1.02 ± 0.015	1.03 ± 0.011	1.02 ± 0.035	1.01 ± 0.038
DUS3L (UniProt Q96G46)	0.946 ± 0.017	0.973 ± 0.027	0.957 ± 0.049	0.947 ± 0.049	0.922 ± 0.043	0.926 ± 0.051	0.921 ± 0.026	0.933 ± 0.029
UniProt Q92766 and related entries	1.02 ± 0.033	1.05 ± 0.029	1.11 ± 0.056	1.09 ± 0.069	1.12 ± 0.093	1.12 ± 0.031	1.17 ± 0.12	1.17 ± 0.11
UniProt Q96JM3	0.984 ± 0.039	0.972 ± 0.074	1.03 ± 0.059	1.05 ± 0.067	1.13 ± 0.067	1.15 ± 0.068	1.28 ± 0.15	1.26 ± 0.16
UniProt Q96AJ9 and related entries	0.962 ± 0.028	0.931 ± 0.067	1.072 ± 0.0059	1.02 ± 0.056	1.06 ± 0.062	0.997 ± 0.054	0.971 ± 0.086	1.03 ± 0.043
FAF2 (UniProt Q96CS3)	0.971 ± 0.097	0.967 ± 0.11	0.905 ± 0.056	0.885 ± 0.076	0.911 ± 0.055	0.876 ± 0.065	0.866 ± 0.061	0.873 ± 0.059
UniProt Q92574 and related entries	1.03 ± 0.097	1.04 ± 0.038	1.07 ± 0.041	1.07 ± 0.072	1.09 ± 0.07	1.08 ± 0.062	1.12 ± 0.14	1.08 ± 0.1
MRPS31 (UniProt Q92665)	1.04 ± 0.11	1.11 ± 0.12	1.23 ± 0.26	1.28 ± 0.25	1.31 ± 0.31	1.24 ± 0.28	1.26 ± 0.31	1.21 ± 0.31
UniProt Q96B01 and related entries	0.9 ± 0.07	0.902 ± 0.078	0.922 ± 0.12	0.97 ± 0.096	0.942 ± 0.15	1.02 ± 0.13	1.02 ± 0.13	1.03 ± 0.1
UniProt Q96EK5	1.06 ± 0.052	1.01 ± 0.053	1.018 ± 0.0048	0.969 ± 0.026	0.973 ± 0.047	0.934 ± 0.034	0.927 ± 0.025	0.888 ± 0.079
UniProt Q969P0 and related entries	1.02 ± 0.066	1 ± 0.048	0.961 ± 0.07	0.956 ± 0.058	0.932 ± 0.069	0.932 ± 0.049	0.953 ± 0.053	0.919 ± 0.077
TSR2 (UniProt Q969E8)	0.875 ± 0.18	0.852 ± 0.13	0.909 ± 0.099	0.947 ± 0.12	1.05 ± 0.19	1.04 ± 0.16	1.07 ± 0.18	1.18 ± 0.23
UniProt Q8WXE0 and related entries	0.966 ± 0.044	0.995 ± 0.053	0.996 ± 0.08	0.973 ± 0.14	0.955 ± 0.097	0.932 ± 0.093	0.94 ± 0.11	0.963 ± 0.078
EXOSC8 (UniProt Q96B26)	1.047 ± 0.0092	1.052 ± 0.0058	1.04 ± 0.024	1.13 ± 0.048	1.17 ± 0.089	1.23 ± 0.088	1.23 ± 0.1	1.24 ± 0.059
UniProt Q8WZA0 and related entries	0.911 ± 0.076	0.832 ± 0.098	1.08 ± 0.092	1 ± 0.068	1.02 ± 0.039	0.971 ± 0.075	0.995 ± 0.14	1.05 ± 0.15
UniProt Q92783 and related entries	0.902 ± 0.019	0.921 ± 0.042	0.944 ± 0.024	0.906 ± 0.075	0.879 ± 0.084	0.913 ± 0.069	0.903 ± 0.055	0.913 ± 0.058
GEMIN6 (UniProt Q8WXD5)	1.05 ± 0.048	1.06 ± 0.064	1.2 ± 0.065	1.12 ± 0.14	1.17 ± 0.067	1.17 ± 0.075	1.21 ± 0.14	1.24 ± 0.12
UniProt Q96EU6 and related entries	1.04 ± 0.12	1.1 ± 0.19	1.15 ± 0.18	1.25 ± 0.25	1.33 ± 0.17	1.44 ± 0.062	1.33 ± 0.032	1.42 ± 0.061
NTAN1 (UniProt Q96AB6)	1.03 ± 0.085	0.99 ± 0.091	0.974 ± 0.058	0.978 ± 0.1	0.936 ± 0.12	0.939 ± 0.13	0.927 ± 0.13	0.855 ± 0.1
UniProt Q96EP0 and related entries	1.08 ± 0.086	0.98 ± 0.016	1 ± 0.12	0.993 ± 0.13	0.99 ± 0.13	0.94 ± 0.07	0.994 ± 0.069	0.957 ± 0.12
NAT14 (UniProt Q8WUY8)	0.993 ± 0.049	1.049 ± 0.0069	0.834 ± 0.088	0.974 ± 0.069	1.05 ± 0.017	0.954 ± 0.025	0.87411 ± 0.0008	0.9323 ± 0.0022

Some values from above:
TSR2 (UniProt Q969E8) – NP40-soluble protein abundance (concentration: 4mM): 1.05 ± 0.19
CHAC2 (UniProt Q8WUX2) – NP40-soluble protein abundance (concentration: 8mM): 0.797 ± 0.072
